Results deposited as PubChem BioAssay AID1671195 (Yale University, 2021)
Screen: 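Regulators of LDL receptor activity judged by labelled LDL uptake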 (primary screen). Cells: human Huh7 hepatoma cells. Knock-down reagent: siRNA pool against human genes, 18 nM. Time to read-out: about 2 to 2.5 days of knockdown, then 8 h LDL uptake. Conditions: DiI-labelled LDL at 30 µg/ml for 8 h, in lipoprotein-deficient serum medium. Read-out: 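Per-cell DiI-LDL intensity by automated imaging; well means scaled to the plate median and given as a robust z-score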. Scale: robust z-score: higher = more LDL uptake after knockdown. Rule for the call: 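Active when two or more replicates show a robust z-score above 2 or below -2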.
This is a random part of about 22,000 reagents tested. In the full data, about 1,510 (6.9%) were called active. 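Active includes knockdowns raising or lowering LDL uptake; positive z-scores mean more uptake, negative mean less.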 A number with no mark means an inactive call. The numbers tell different reagents against one gene apart.

no.	Gene	pool no.	robust z-score, replicate 1	robust z-score, replicate 2	robust z-score, replicate 3
1	NSF	1	1.16	2.27	1.69
2	AKAP8	1	1.24	1.17	0.59
3	RPL10AP3	1	-0.398	-1.15	-0.192
4	MALRD1	1	-1.71	-1.93	-1.83
5	LOC440424 (retired record)	1	0.279	0.881	1.14
6	COA4	1	-0.0833	1.51	1.04
7	FBXW8	1	-0.919	0.423	1.72
8	CYTH4	1	-1.12	1.82	0.102
9	SLC9D1	1	-0.563	-1.54	-0.839
10	CAND1	1	0.285	0.517	0.935
11	C16orf86	1	-1.3	-1.33	-1.43
12	XYLB	1	0.0719	0.647	0.612
13	COL18A1-AS1	1	1.31	2.06	1.27
14	LOC440399 (retired record)	1	-0.485	-0.844	-0.566
15	YAF2	1	2.53 (active)	1.62	2.57
16	BRME1	1	0.308	1.16	0.673
17	TMEM186	1	-0.345	0.981	-0.00385
18	LOC390633 (retired record)	1	-0.0912	-0.0472	0.135
19	CWC27	1	0.279	0.793	0.0881
20	RFPL4B	1	0.98	0.6	0.76
21	SMCR8	1	-1.18	-1.6	-1.07
22	SDHAF4	1	-1.46	-0.398	-0.335
23	NGRN	1	0.615	1.31	0.524
24	NGRN	2	0.104	-0.145	0.645
25	SAA1	1	0.96	0.745	1.26
26	ROPN1B	1	0.963	1.09	-0.0493
27	B4GALNT2	1	-0.815	-1.52	0.765
28	BAIAP2L2	1	1.06	1.04	1.9

Reformatted: entries from further up
{"Gene":"XYLB","pool no.":1,"robust z-score, replicate 1":0.0719,"robust z-score, replicate 2":0.647,"robust z-score, replicate 3":0.612}
{"Gene":"COL18A1-AS1","pool no.":1,"robust z-score, replicate 1":1.31,"robust z-score, replicate 2":2.06,"robust z-score, replicate 3":1.27}
{"Gene":"LOC440399 (retired record)","pool no.":1,"robust z-score, replicate 1":-0.485,"robust z-score, replicate 2":-0.844,"robust z-score, replicate 3":-0.566}
{"Gene":"YAF2","pool no.":1,"robust z-score, replicate 1":"2.53 (active)","robust z-score, replicate 2":1.62,"robust z-score, replicate 3":2.57}
{"Gene":"BRME1","pool no.":1,"robust z-score, replicate 1":0.308,"robust z-score, replicate 2":1.16,"robust z-score, replicate 3":0.673}
{"Gene":"TMEM186","pool no.":1,"robust z-score, replicate 1":-0.345,"robust z-score, replicate 2":0.981,"robust z-score, replicate 3":-0.00385}
{"Gene":"LOC390633 (retired record)","pool no.":1,"robust z-score, replicate 1":-0.0912,"robust z-score, replicate 2":-0.0472,"robust z-score, replicate 3":0.135}
{"Gene":"CWC27","pool no.":1,"robust z-score, replicate 1":0.279,"robust z-score, replicate 2":0.793,"robust z-score, replicate 3":0.0881}

More records follow:
no.	Gene	pool no.	robust z-score, replicate 1	robust z-score, replicate 2	robust z-score, replicate 3
29	PCDH15	1	0.368	0.8	1.12
30	PCDH15	2	-0.0837	-0.126	0.0842
31	LOC441766 (retired record)	1	-0.283	-0.639	-0.241
32	PLCB4	1	-0.502	-0.0196	-0.249
33	GPR37	1	1.16	0.298	0.12
34	DYNLT3	1	0.00228	-0.366	-0.263
35	NOL9	1	0.899	1.55	1.24
36	LOC389991 (retired record)	1	-0.755	-0.965	-1.33
37	CTBP1	1	-1.77	-1.28	-1.91
38	C8orf15 (retired record)	1	4.03 (active)	3.19	2.58
39	APCS	1	1.49	0.941	1.31
40	ZNF169	1	-1.62	-1.54	-1.76
41	ZNF76	1	0.269	0.375	0.3
42	COL8A2	1	2.42 (active)	3.71	3.02
43	ABCA13	1	-0.81	-0.294	-1.08
44	FTH1P14	1	1.55	1.8	0.802
45	GRID2	1	-1.51	-1.32	-1.44
46	RENBP	1	-0.486	-0.511	-0.221
47	NLRP7	1	2.04 (active)	2.35	1.66
48	WDR45	1	0.683	0.213	-0.34
49	KLRK1	1	-1.18	-1.72	-1.67
50	IFI16	1	1.47	1.65	1.83
51	PTCD1	1	1.2	1.24	1.17
52	NAPG	1	-0.584	-0.262	-0.29
53	UBE3B	1	-1.44	0.7	-1.32
54	PTPRM	1	-0.978	-1.09	-1.29
55	THAP2	1	0.775	1.29	0.297
56	SSH3	1	0.0356	-0.588	-0.227
57	RNF40	1	-0.18	-1.04	-0.873
58	SLITRK2	1	-0.529	-0.302	-0.278
59	CILK1	1	1.42	0.88	1.74
60	AQP3	1	-0.553	-0.954	-0.562
61	TRAPPC10	1	0.89	0.28	0.648
62	VPS45	1	1.55	0.123	1.8
63	LOC652276	1	-0.494	-0.952	-0.716
64	GCGR	1	-0.776	0.877	0.259
65	FKBP8	1	0.28	0.435	0.617
66	ZBTB10	1	-1.1	-1.13	-1.34
67	VILL	1	0.298	-0.988	1.61
68	FXYD2	1	-1.56	-1.27	-1.53
